Source: PubChem BioAssay AID248 (DTP/NCI, 2004)
The list does not hold the whole screen: it is rich in T/C values a quarter to a half above the control, in often repeated tests (any T/C) and in doses without a T/C. Further doses and runs are listed elsewhere. T/C: endpoint of the treated group in % of that of the vehicle group. Some doses have a count of surviving animals in place of a T/C: the source holds a T/C of zero for them, seemingly a mark for toxic or unscored doses. Some doses without a T/C left all or most animals alive at the check, yet need not have been tolerated: survival well below the control is almost never listed, so the zero probably covers shortened survival too. Counts of survivors are from the toxicity check (mostly the fifth day) where no day follows; animals may have died later. Schedule codes are those of the source, taken here to give the interval after Q, in days (D) or hours (H), and the number of doses after X. Some schedules carry Z or #; the key to these is not given. Some entries were tested several times; their values stand side by side, smallest first. Where survival is the endpoint, the PubChem record calls one and a half times the control and up active, and a quarter to a half above the control has no call in these data; cut-offs in other NCI protocols can differ.

System: L1210 leukemia ip in BDF1 mice, survival T/C
Experiment: NCI In Vivo Anticancer Drug Screen. Data for tumor model L1210 Leukemia (intraperitoneal) in B6D2F1 (BDF1) mice
Details: T/C endpoint: mean survival time, higher T/C = longer survival
[1] = dose: 400.0 mg/kg/injection, schedule: Q01DX001 (ip), vehicle: saline with Tween-80
[2] = dose: 100.0 mg/kg/injection, schedule: Q04DX003 (ip), vehicle: Klucel (hydroxypropylcellulose) (HPC)
[3] = dose: 200.0 mg/kg/injection, schedule: Q04DX003 (ip), vehicle: Klucel (hydroxypropylcellulose) (HPC)
[4] = dose: 400.0 mg/kg/injection, schedule: Q01DX001 (ip), vehicle: carboxymethylcellulose (CMC)
[5] = dose: 100.0 mg/kg/injection, schedule: Q01DX009 (ip), vehicle: Klucel (hydroxypropylcellulose) (HPC)
[6] = dose: 200.0 mg/kg/injection, schedule: Q01DX009 (ip), vehicle: Klucel (hydroxypropylcellulose) (HPC)
[7] = dose: 150.0 mg/kg/injection, schedule: Q01DX001 (ip), vehicle: saline
[8] = dose: 300.0 mg/kg/injection, schedule: Q01DX001 (ip), vehicle: saline
[9] = dose: 400.0 mg/kg/injection, schedule: Q04DX003 (ip), vehicle: saline with Tween-80
[10] = dose: 400.0 mg/kg/injection, schedule: Q04DX003 (ip), vehicle: Klucel (hydroxypropylcellulose) (HPC)
[11] = dose: 200.0 mg/kg/injection, schedule: Q04DX003 (ip), vehicle: saline with Tween-80
[12] = dose: 400.0 mg/kg/injection, schedule: Q04DX002 (ip), vehicle: saline with Tween-80
[13] = dose: 200.0 mg/kg/injection, schedule: Q04DX002 (ip), vehicle: Klucel (hydroxypropylcellulose) (HPC)
[14] = dose: 400.0 mg/kg/injection, schedule: Q04DX002 (ip), vehicle: Klucel (hydroxypropylcellulose) (HPC)

CN(C(=O)c1ccc(C(=N)N)cc1)c1ccccc1
survivor count [1]: 0 of 6

Cl/C(=C\c1ccccc1)c1ccccc1
survivor count [2]: 0 of 6
survivor count [3]: 2 of 6

CCCOC(=O)c1ccc([N+](=O)[O-])o1
survivor count (dose: 400.0 mg/kg/injection, schedule: Q01DX001 (ip), vehicle: Klucel (hydroxypropylcellulose) (HPC)): 3 of 6

O=C1NC(=O)C(=Cc2csc3ccccc23)C(=O)N1
survivor count [4]: 2 of 4

CNC(=S)N/N=C(/C)CCC/C(C)=N/NC(=S)NC
survivor count (dose: 50.0 mg/kg/injection, schedule: Q03HX024 (ip), vehicle: Klucel (hydroxypropylcellulose) (HPC)): 0 of 8
survivor count [5]: 5 of 8
survivor count (dose: 100.0 mg/kg/injection, schedule: Q03HX024 (ip), vehicle: Klucel (hydroxypropylcellulose) (HPC)): 0 of 8
survivor count [6]: 0 of 8

C=CCC1(/C(=C\CC)CCC)C(=O)NC(=O)NC1=O
survivor count [7]: 0 of 6
survivor count [8]: 0 of 6

CC12CCC3c4ccc([O-])c([N+]#N)c4CCC3C1CCC2=O (configuration not stated)
survivor count [5]: 1 of 3

CCN=C(c1ccc(NC(=O)c2ccc(C(=O)Nc3ccc(C(=NCC)N(CC)C(=O)OC)cc3)cc2)cc1)N(CC)C(=O)OC
T/C (dose: 3.0 mg/kg/injection, schedule: Q01DX015 (ip), vehicle: methylcellulose (MC)): 130 % of control
T/C (dose: 3.75 mg/kg/injection, schedule: Q01DX015 (ip), vehicle: methylcellulose (MC)): 148 % of control
T/C (dose: 6.0 mg/kg/injection, schedule: Q01DX015 (ip), vehicle: methylcellulose (MC)): 131 % of control
survivor count (dose: 12.0 mg/kg/injection, schedule: Q01DX015 (ip), vehicle: methylcellulose (MC)): 1 of 6
survivor count (dose: 15.0 mg/kg/injection, schedule: Q01DX015 (ip), vehicle: methylcellulose (MC)): 0 of 6
survivor count (dose: 30.0 mg/kg/injection, schedule: Q01DX015 (ip), vehicle: methylcellulose (MC)): 0 of 6
survivor count (dose: 62.0 mg/kg/injection, schedule: Q01DX015 (ip), vehicle: methylcellulose (MC)): 0 of 6
survivor count (dose: 125.0 mg/kg/injection, schedule: Q01DX015 (ip), vehicle: methylcellulose (MC)): 0 of 6
survivor count (dose: 250.0 mg/kg/injection, schedule: Q01DX015 (ip), vehicle: methylcellulose (MC)): 0 of 6
survivor count (dose: 500.0 mg/kg/injection, schedule: Q01DX015 (ip), vehicle: methylcellulose (MC)): 0 of 6

O=c1[nH]cnc2c1nc1n2CCC1
survivor count [9]: 1 of 6

COc1cccc(CC(=O)C(=O)O)c1
survivor count [10]: 3 of 6

ClCC1CNC(c2ccccc2)O1 (configuration not stated)
survivor count (dose: 100.0 mg/kg/injection, schedule: Q04DX003 (ip), vehicle: saline with Tween-80): 0 of 6
survivor count [11]: 0 of 6
survivor count [9]: 0 of 6

Cc1cc2c(cc1C)NC(C)CC(=O)N2 (configuration not stated)
survivor count (dose: 200.0 mg/kg/injection, schedule: Q01DX009 (ip), vehicle: saline): 6 of 6
survivor count (dose: 300.0 mg/kg/injection, schedule: Q01DX009 (ip), vehicle: Klucel (hydroxypropylcellulose) (HPC)): 3 of 6
survivor count (dose: 400.0 mg/kg/injection, schedule: Q01DX009 (ip), vehicle: saline): 0 of 6

CC(C)CCN=C(N)N=C(N)N
survivor count (dose: 200.0 mg/kg/injection, schedule: Q04DX002 (ip), vehicle: saline): 0 of 3
survivor count (dose: 400.0 mg/kg/injection, schedule: Q04DX002 (ip), vehicle: saline): 0 of 3

C=CCNC(=S)Nc1c(C)cc(C)cc1C
survivor count [5]: 5 of 6
survivor count [6]: 1 of 6
survivor count (dose: 400.0 mg/kg/injection, schedule: Q01DX009 (ip), vehicle: Klucel (hydroxypropylcellulose) (HPC)): 0 of 6

CCCCCCCC(C)NCCCO (configuration not stated)
survivor count [7]: 0 of 6
survivor count [8]: 0 of 6

CCCCCCCCCC(=O)OCC1OC(=O)C(C)N(C)C(=O)CN(C)C(=O)C2C(=O)CC(C)N2C(=O)C(C(C)C)NC(=O)C1NC(=O)c1c2nc3c(C(=O)NC4C(=O)NC(C(C)C)C(=O)N5C(C)CC(OC(=O)CCCCCCCCC)C5C(=O)N(C)CC(=O)N(C)C(C(C)C)C(=O)OC4C)ccc(C)c3oc-2c(C)c(=O)c1N (configuration not stated)
survivor count (dose: 25.6 mg/kg/injection, schedule: Q01DX001 (ip), vehicle: Klucel (hydroxypropylcellulose) (HPC)): 7 of 8

O=C(Nc1ccc(NC(=O)Nc2cc(C3=NCCN3)cc(C3=NCCN3)c2)cc1)Nc1cc(C2=NCCN2)cc(C2=NCCN2)c1
survivor count (dose: 30.0 mg/kg/injection, schedule: Q01DX Z (ip), vehicle: saline): 6 of 6
survivor count (dose: 60.0 mg/kg/injection, schedule: Q01DX Z (ip), vehicle: saline): 3 of 6
survivor count (dose: 120.0 mg/kg/injection, schedule: Q01DX Z (ip), vehicle: saline): 0 of 6
survivor count (dose: 240.0 mg/kg/injection, schedule: Q01DX Z (ip), vehicle: saline): 0 of 6

O=c1c2ccccc2[nH]c2ccccc12
survivor count [2]: 1 of 6

Nc1ccnc2snnc12
survivor count [1]: 3 of 6

Cc1c2ccccc2cc2[n+]1CCc1ccccc1-2
survivor count [1]: 0 of 6

c1ccc(C2NC2c2ccccc2)cc1 (configuration not stated)
survivor count [4]: 1 of 4

O=[N+]([O-])c1cc([N+](=O)[O-])c2ccc(S(=O)(=O)O)cc2c1O
survivor count [3]: 0 of 6
survivor count [10]: 0 of 6

O=[N+]([O-])c1cccc(C(O)C=C(C(F)(F)F)C(F)(F)F)c1 (configuration not stated)
survivor count [11]: 6 of 6
survivor count [9]: 6 of 6

CNC(=O)n1cncn1
survivor count (dose: 400.0 mg/kg/injection, schedule: Q04DX003 (ip), vehicle: saline): 3 of 6

COc1ccc([P+](=S)SS[P+](=S)c2ccc(OC)cc2)cc1 (configuration not stated)
survivor count [12]: 1 of 3

CN1C(=O)CC(c2ccc(NC(=O)CI)cc2)C1=O (configuration not stated)
survivor count (dose: 25.0 mg/kg/injection, schedule: Q04DX002 (ip), vehicle: saline with Tween-80): 1 of 3
survivor count (dose: 50.0 mg/kg/injection, schedule: Q04DX002 (ip), vehicle: saline with Tween-80): 1 of 3
survivor count (dose: 100.0 mg/kg/injection, schedule: Q04DX002 (ip), vehicle: saline with Tween-80): 0 of 3
survivor count (dose: 200.0 mg/kg/injection, schedule: Q04DX002 (ip), vehicle: saline with Tween-80): 0 of 3
survivor count [12]: 0 of 3

O=C(O)c1cccc(Br)c1.[Ni]
survivor count (dose: 100.0 mg/kg/injection, schedule: Q04DX002 (ip), vehicle: Klucel (hydroxypropylcellulose) (HPC)): 0 of 3 and 2 of 3
survivor count [13]: 0 of 3
survivor count [14]: 1 of 3

CN1CCC(=C2c3ccccc3C(O)c3ccccc32)CC1 (configuration not stated)
survivor count (dose: 25.0 mg/kg/injection, schedule: Q01DX009 (ip), vehicle: Klucel (hydroxypropylcellulose) (HPC)): 6 of 6
survivor count [2]: 1 of 4
survivor count [3]: 0 of 4
survivor count [10]: 0 of 4

NCCCNCCCN
survivor count [13]: 0 of 3
survivor count [14]: 0 of 3

CC1(C)CCC(=NNC(N)=S)CC1
survivor count (dose: 80.0 mg/kg/injection, schedule: Q01DX001 (ip), vehicle: carboxymethylcellulose (CMC)): 0 of 4
survivor count (dose: 100.0 mg/kg/injection, schedule: Q01DX001 (ip), vehicle: carboxymethylcellulose (CMC)): 0 of 4
survivor count (dose: 200.0 mg/kg/injection, schedule: Q01DX001 (ip), vehicle: carboxymethylcellulose (CMC)): 0 of 4
survivor count [4]: 0 of 4

C[N+](C)(C)CCOC(=O)c1cc(CBr)cc(CBr)c1
survivor count (dose: 100.0 mg/kg/injection, schedule: Q01DX009 (ip), vehicle: saline): 6 of 6

Nc1cccc(CCCCOc2ccccc2)c1
survivor count (dose: 400.0 mg/kg/injection, schedule: Q01DX009 (ip), vehicle: saline with Tween-80): 1 of 6
